Patent publication US20200089110A1, “SULFONIC ACID DERIVATIVE COMPOUNDS AS PHOTOACID GENERATORS IN RESIST APPLICATIONS” (Heraeus Precious Metals North America Daychem LLC, priority 2015, published 2020)

Assay: Photolysis of PAGs in acetonitrile under 365 nm irradiation (photoreactivity)
Type: physicochemical
Conditions: for Relative Photoreactivity at 365 nm: photoreaction constant relative to NIT normalized to one, air, room temperature, 3×10^−5 M
Source text: A photoresist composition typically comprises PAG, polymers, additives and solvents. The performance of a photoresist composition is mainly dependent on the properties of the PAG and polymer components. To formulate a high-performance photoresist composition, more photosensitive PAGs are typically selected. The photosensitivity of a PAG is typically directly related to the strength of the generated acid and the photoreactivity of the PAG. For a series of PAGs producing the same latent acid, their photosensitivity is related only to their photoreactivity. Thus evaluating the photosensitivity of a PAG can be achieved by studying its photoreactivity. The higher photoreactivity, the higher photosensitivity. The photoreactivity can be investigated by photolysis of a PAG in its dilute solution under low exposure intensity (to avoid side reactions which don't generate the desired acid). The change in the concentration of a PAG upon irradiation can be determined by measuring the absorbance of the PAG at the maximum absorption wavelength.
Photolysis of PAGs was carried out in acetonitrile in air at room temperature. The sodium salt of tetrabromophenol blue (TBPBNa), an acid indicator dye, which has a maximum absorption at 618 nm, was purchased from Aldrich (indicator grade) and used as received. Irradiation of the solution of the PAGs (3×10^−5 M) was performed using a Cole-Parmer UV 15 W bench lamp (EW-97605-50) at 365 nm. Light intensity was measured using an UV Power Puck II radiometer from EIT Inc. UV-Vis spectra were run on a Thermo Scientific Evolution 201 UV-visible spectrophotometer.
Photolysis of NIT, comparative compound A, D-1, and D-2 was examined in acetonitrile. The absorption band at 397 nm gradually decreases upon irradiation, indicating the progress of photoreaction with the increase of exposure dose of energy. Assuming the photoreaction is first-order, plot of natural log of changes in absorbance with exposure dose of energy gives the photoreaction constant of D-2 (i.e. the slope of the linear trendline) (FIG. 2). The photoreaction constants of other compounds were similarly determined under the same irradiation condition.
Comparing the constants of A, D-1, and D-2 with that of NIT normalized to one gives the relative photoreactivity (Table 7). The photoreactivity for PAG (e.g. D-2) according to the present disclosure is ˜8 times greater than that of NIT and ˜3 times greater than that of Comparative Compound A. The formation of acid upon irradiation was confirmed by observing the spectral changes of the acid indicator, TBPBNa at 618 nm.

Row | SMILES | Relative Photoreactivity at 365 nm | photoreactivity, times greater than that of Comparative Compound A (365 nm) | photoreactivity, times greater than that of NIT (365 nm)
1 | O=C1c2cccc3c(C#Cc4ccccc4)ccc(c23)C(=O)N1OS(=O)(=O)C(F)(F)F [Comparative Compound A, reference compound] | 2.5 | – | –
2 | O=C1c2cccc3cccc(c23)C(=O)N1OS(=O)(=O)C(F)(F)F [NIT, N-Hydroxynaphthalimide triflate, reference compound] | 1.0 | – | –
3 | CCC(C)Oc1ccc(/C=C/c2ccc3c4c(cccc24)C(=O)N(OS(=O)(=O)C(F)(F)F)C3=O)cc1 (stereo not shown) | 8.7 | – | –
4 | O=C1c2cccc3c(/C=C/c4ccccc4)ccc(c23)C(=O)N1OS(=O)(=O)C(F)(F)F [Compound D-2] | 8.2 | ~3 times | ~8 times
5 | CCCCOC(=O)/C=C/c1ccc2c3c(cccc13)C(=O)N(OS(=O)(=O)C(F)(F)F)C2=O [Compound D-1] | 1.8 | – | –
